Measurements from article PMC4231456, “HIV-1 Tat protein binds to TLR4-MD2 and signals to induce TNF-α and IL-10” (Retrovirology, 2013).
These are yes or no findings as the source states them, for the method shown. For some of these results: Binding calls can cover weak binding; strength is not graded here. For some of these results: In cells and extracts the contact can be indirect.

Columns and labels:
[1] = biological target: T1, recombinant human CD14 (human) (UniProt P08571); assay: ELISA; solid phase assay: rh TLR4-MD2, MD2 or CD14 coated at 1 μg/ml (24 h, 4°C); GST-Tat 1-101, GST-Tat 1-45, GST-Tat 30-72 or GST (1 μM) incubated 2 h at 37°C; detected with anti-GST or monoclonal anti-Tat; OD 450 nm; both purified
T1 sequence: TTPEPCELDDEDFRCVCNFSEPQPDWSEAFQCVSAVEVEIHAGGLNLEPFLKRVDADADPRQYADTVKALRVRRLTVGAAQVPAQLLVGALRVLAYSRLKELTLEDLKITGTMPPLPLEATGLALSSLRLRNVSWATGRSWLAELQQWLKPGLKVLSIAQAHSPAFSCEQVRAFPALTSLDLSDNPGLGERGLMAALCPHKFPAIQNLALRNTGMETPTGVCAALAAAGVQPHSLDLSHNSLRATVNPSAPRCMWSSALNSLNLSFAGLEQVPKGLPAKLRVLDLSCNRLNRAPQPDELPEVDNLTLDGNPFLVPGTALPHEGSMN

[2] = biological target: T2, recombinant human MD2 (human) (UniProt Q9Y6Y9); assay: as above
T2 sequence: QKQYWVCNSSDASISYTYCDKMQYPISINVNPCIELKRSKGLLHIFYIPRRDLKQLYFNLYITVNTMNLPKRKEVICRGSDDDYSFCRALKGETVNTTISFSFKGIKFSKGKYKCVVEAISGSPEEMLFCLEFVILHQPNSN

[3] = biological target: T2, recombinant human MD2 (human); assay: ELISA; competition: GST-Tat 1-101 or GST-Tat 1-45 (0.1 μM) pre-incubated 1 h at 37°C with increasing amounts of soluble rhMD2, rhTLR4-MD2, rhTLR4 or rhCD14, then 2 h on coated rhMD2 (or TLR4-MD2); OD 450 nm; K0.5 taken as an apparent dissociation constant; both purified
[4] = biological target: GST-Tat 1-101 (HIV-1 Tat protein) (HIV-1); assay: pull-down; GST or GST-Tat proteins coupled to glutathione-agarose beads incubated with 500 μg of total cellular extract of HEK 293-TLR4-MD2-CD14 cells (HEK 293 as control); western blot with antibodies against CD14, MD2, TLR4; only the target purified
[5] = biological target: GST-Tat 1-45 (N-terminal domain of HIV-1 Tat) (HIV-1); assay: as above
[6] = biological target: GST-Tat 1-101 (HIV-1 Tat protein) (HIV-1); assay: pull-down; GST or GST-Tat proteins (1 μM) coupled to glutathione-agarose beads, saturated with BSA, incubated with soluble recombinant human TLR4-MD2, MD2 or CD14 (1 μg); washes with Tris-HCl 20 mM, NaCl 150 mM, NP-40 0.5%; western blot; both purified
[7] = biological target: GST-Tat 1-45 (N-terminal domain of HIV-1 Tat) (HIV-1); assay: as above

GST-Tat 1-45 (N-terminal domain of HIV-1 Tat) (domain or fragment)
binding [1]: no binding (tested: 1 μM) | binding [2]: binds | binding [3]: binds

GST-Tat 1-101 (HIV-1 Tat protein)
binding [1]: no binding (tested: 1 μM) | binding [2]: binds | binding [3]: binds

GST-Tat 30-72 (central domain of HIV-1 Tat) (domain or fragment)
binding [1]: no binding (tested: 1 μM) | binding [2]: no binding (tested: 1 μM)

B1: MD2 from HEK293 cells stably transfected with TLR4-CD14-MD2 (protein, UniProt Q9Y6Y9 19-160)
chain: QKQYWVCNSSDASISYTYCDKMQYPISINVNPCIELKRSKGLLHIFYIPRRDLKQLYFNLYITVNTMNLPKRKEVICRGSDDDYSFCRALKGETVNTTISFSFKGIKFSKGKYKCVVEAISGSPEEMLFCLEFVILHQPNSN
binding [4]: binds | binding [5]: binds

B2: recombinant human MD2 (natural protein, UniProt Q9Y6Y9 19-160, looked up)
chain: QKQYWVCNSSDASISYTYCDKMQYPISINVNPCIELKRSKGLLHIFYIPRRDLKQLYFNLYITVNTMNLPKRKEVICRGSDDDYSFCRALKGETVNTTISFSFKGIKFSKGKYKCVVEAISGSPEEMLFCLEFVILHQPNSN
notes: human MD2 (lymphocyte antigen 96), soluble recombinant; No catalogue number printed; also called rhMD2; hMD2; source: bought: R&D Systems
binding [6]: binds | binding [7]: binds

B3: recombinant human CD14 (protein, UniProt P08571 20-345)
chain: TTPEPCELDDEDFRCVCNFSEPQPDWSEAFQCVSAVEVEIHAGGLNLEPFLKRVDADADPRQYADTVKALRVRRLTVGAAQVPAQLLVGALRVLAYSRLKELTLEDLKITGTMPPLPLEATGLALSSLRLRNVSWATGRSWLAELQQWLKPGLKVLSIAQAHSPAFSCEQVRAFPALTSLDLSDNPGLGERGLMAALCPHKFPAIQNLALRNTGMETPTGVCAALAAAGVQPHSLDLSHNSLRATVNPSAPRCMWSSALNSLNLSFAGLEQVPKGLPAKLRVLDLSCNRLNRAPQPDELPEVDNLTLDGNPFLVPGTALPHEGSMN
binding [6]: no binding (tested: 1 μg/ml) | binding [7]: no binding (tested: 1 μg/ml)

B4: CD14 from HEK293 cells stably transfected with TLR4-CD14-MD2 (protein, UniProt P08571 20-345)
chain: TTPEPCELDDEDFRCVCNFSEPQPDWSEAFQCVSAVEVEIHAGGLNLEPFLKRVDADADPRQYADTVKALRVRRLTVGAAQVPAQLLVGALRVLAYSRLKELTLEDLKITGTMPPLPLEATGLALSSLRLRNVSWATGRSWLAELQQWLKPGLKVLSIAQAHSPAFSCEQVRAFPALTSLDLSDNPGLGERGLMAALCPHKFPAIQNLALRNTGMETPTGVCAALAAAGVQPHSLDLSHNSLRATVNPSAPRCMWSSALNSLNLSFAGLEQVPKGLPAKLRVLDLSCNRLNRAPQPDELPEVDNLTLDGNPFLVPGTALPHEGSMN
binding [4]: no binding (tested: 500 μg of cellular extract) | binding [5]: no binding (tested: 500 μg of cellular extract)
